Publication doi:10.1101/2023.07.28.550789
Results are given in words; binding and its absence hold for the method and conditions named. In cells and extracts the contact can be indirect. Where a sequence is shown, tags or fusion partners need not be part of it.

Biological target: T1, Strep-RnpM (Strep-tagged RnpM, plasmid pGP3650) (B. subtilis 168) (UniProt P32728)
T1 sequence: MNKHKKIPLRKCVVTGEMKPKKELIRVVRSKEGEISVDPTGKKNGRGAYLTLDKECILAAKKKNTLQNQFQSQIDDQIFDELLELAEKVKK
Assay: pull-down

- binding: no binding
B1: His-RnpA (recombinant His-tagged RnpA from B. subtilis, plasmid pQE30-His-RnpA) (protein, UniProt P25814 2-116)
chain: KKRNRLKKNEDFQKVFKHGTSVANRQFVLYTLDQPENDELRVGLSVSKKIGNAVMRNRIKRLIRQAFLEEKERLKEKDYIIIARKPASQLTYEETKKSLQHLFRKSSLYKKSSSK
